Measurements: PMC10613967, “The anti-cancer efficacy of a novel phenothiazine derivative is independent of dopamine and serotonin receptor inhibition” (Frontiers in Oncology, 2023)
Where a name gives a salt, the structure may show the parent alone. Read-outs that look alike come from different tables or passages of the source.

Experiments:
[1] = test system: HCT116; experiment: Cell viability assay (Cell-Titer-Blue); assay type: cell-based; conditions: Homo sapiens, HCT-116; 72h; read-out: Calculated IC50
[2] = test system: MDA-MB-231; experiment: Cell viability assay (Cell-Titer-Blue); assay type: cell-based; conditions: Homo sapiens, 72h, read-out: Calculated IC50
[3] = test system: 786-O; experiment: Cell viability assay (Cell-Titer-Blue); assay type: cell-based; conditions: Homo sapiens, 786-0; 72h; read-out: Calculated IC50
[4] = test system: PC-3; experiment: Cell viability assay (Cell-Titer-Blue); assay type: cell-based; conditions: Homo sapiens, 72h, read-out: Calculated IC50
[5] = test system: U87; experiment: Cell viability assay (Cell-Titer-Blue); assay type: cell-based; conditions: Homo sapiens, U-87 MG; 72h; read-out: Calculated IC50
[6] = test system: A2058; experiment: Cell viability assay (Cell-Titer-Blue); assay type: cell-based; conditions: Homo sapiens, 72h, read-out: Calculated IC50
[7] = test system: R545 tet-inducible RasV12 melanoma cells; experiment: cells; conditions: Mus musculus, 72 h
[8] = test system: TCCSUP; experiment: Cell viability assay (Cell-Titer-Blue); assay type: cell-based; conditions: Homo sapiens, TCC-SUP; 72h; read-out: Calculated IC50
[9] = test system: MCF10A cells; experiment: cells; conditions: Homo sapiens, MCF-10A, 72 h, read-out: Calculated IC50
[10] = test system: 22Rv1; experiment: Cell viability assay (Cell-Titer-Blue); assay type: cell-based; conditions: Homo sapiens, 72h, read-out: Calculated IC50
[11] = test system: HT29; experiment: Cell viability assay (Cell-Titer-Blue); assay type: cell-based; conditions: Homo sapiens, HT-29; 72h; read-out: Calculated IC50
[12] = test system: HepG2; experiment: Cell viability assay (Cell-Titer-Blue); assay type: cell-based; conditions: Homo sapiens, 72h, read-out: Calculated IC50
[13] = test system: U251; experiment: Cell viability assay (Cell-Titer-Blue); assay type: cell-based; conditions: Homo sapiens, U-251; 72h; read-out: Calculated IC50
[14] = test system: RPMI7951; experiment: Cell viability assay (Cell-Titer-Blue); assay type: cell-based; conditions: Homo sapiens, RPMI-7951; 72h; read-out: Calculated IC50
[15] = test system: ZR-75-1; experiment: Cell viability assay (Cell-Titer-Blue); assay type: cell-based; conditions: Homo sapiens, 72h, read-out: Calculated IC50
[16] = test system: A375 cells; experiment: Cell viability assay (Cell-Titer-Blue); assay type: cell-based, human
[17] = test system: A101D; experiment: Cell viability assay (Cell-Titer-Blue); assay type: cell-based; conditions: Homo sapiens, 72h, read-out: Calculated IC50
[18] = test system: PANC1; experiment: Cell viability assay (Cell-Titer-Blue); assay type: cell-based; conditions: Homo sapiens, PANC-1; 72h; read-out: Calculated IC50
[19] = test system: Hs852T; experiment: Cell viability assay (Cell-Titer-Blue); assay type: cell-based; conditions: Homo sapiens; 72h; read-out: Calculated IC50
[20] = test system: DU145; experiment: Cell viability assay (Cell-Titer-Blue); assay type: cell-based; conditions: Homo sapiens, DU-145; 72h; read-out: Calculated IC50
[21] = test system: BxPC3; experiment: Cell viability assay (Cell-Titer-Blue); assay type: cell-based; conditions: Homo sapiens, BXPC-3; 72h; read-out: Calculated IC50
[22] = test system: A498; experiment: Cell viability assay (Cell-Titer-Blue); assay type: cell-based; conditions: Homo sapiens, 72h, read-out: Calculated IC50
[23] = test system: SKMEL28; experiment: Cell viability assay (Cell-Titer-Blue); assay type: cell-based; conditions: Homo sapiens, SK-MEL-28; 72h; read-out: Calculated IC50
[24] = test system: LNCaP; experiment: Cell viability assay (Cell-Titer-Blue); assay type: cell-based; conditions: Homo sapiens, 72h, read-out: Calculated IC50
[25] = test system: HCC1806; experiment: Cell viability assay (Cell-Titer-Blue); assay type: cell-based; conditions: Homo sapiens, 72h, read-out: Calculated IC50
[26] = test system: RT4; experiment: Cell viability assay (Cell-Titer-Blue); assay type: cell-based; conditions: Homo sapiens, RT-4; 72h; read-out: Calculated IC50

OCCN1CCN(CCCN2c3ccccc3Sc3ccc(C(F)(F)F)cc32)CC1 [Fluphenazine, fluphenazine hydrochloride]
IC50 [1]: 10.6 µM
IC50 [2]: 16.9 µM
IC50 [3]: 12 µM
IC50 [4]: 22.8 µM
IC50 [5]: 23.3 µM
IC50 [6]: 7.9 µM
IC50 ([7]; read-out: Calculated IC50, 72h, Dox (–)): 13.2 µM
IC50 ([7]; read-out: Calculated IC50, 72h, Dox(+)): 12.7 µM
IC50 [8]: 11.5 µM
IC50 [9]: 11.3 µM
IC50 [10]: 11.3 µM
IC50 [11]: 11.1 µM
IC50 [12]: 9.8 µM
IC50 [13]: 16.8 µM
IC50 [14]: 10.7 µM
IC50 [15]: 13.4 µM
IC50 ([16]; 72h, read-out: Calculated IC50): 9.4 µM
IC50 ([16]; Homo sapiens, A-375, 24 h, 24h treatment, read-out: IC50, cell viability): 20.1 µM
IC50 ([16]; Homo sapiens, A-375, 72 h, 72h, read-out: Calculated IC50): 9.35 µM
IC50 [17]: 7.7 µM
IC50 [18]: 23.1 µM
IC50 [19]: 11.7 µM
IC50 [20]: 21 µM
IC50 [21]: 10.4 µM
IC50 [22]: 7.5 µM
IC50 [23]: 8.7 µM
IC50 [24]: 13.7 µM
IC50 [25]: 11.4 µM
IC50 [26]: 22.1 µM
